The list shows a part of the results.
These targets were tested with CS(=O)(=O)c1ccc(-c2cnc(N)c(C(=O)Nc3ccccc3)n2)cc1 (assay: log2 fold change, soluble protein after heating vs DMSO (PISA); higher = thermal stabilisation; K562 cells, 10 uM, 30 min; active = over 0.2 and 3.5 SD of the protein, either way, in both replicates (recomputed)).
How it was run: (§1)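 K562 cells at 2×10^6 cells/mL were treated for 30 min with 10 μM compound, and aliquots were heated for 3 min over 48°C-58°C before pooling. Extraction used PBS with 0.5% NP-40 at 4°C, and soluble protein was the supernatant after 21,000xg for 90 min, measured by TMTpro 16plex LC-MS/MS with channel sums equalised. Thermal stability values, relative to control samples and from duplicates, are log2 fold changes.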

Protein sequences, listed by entry. Tags and fused reporters are not part of them. Lines headed by an entry give the natural chain unless they say otherwise; changes in a name come on top.
UniProt Q9UBP0: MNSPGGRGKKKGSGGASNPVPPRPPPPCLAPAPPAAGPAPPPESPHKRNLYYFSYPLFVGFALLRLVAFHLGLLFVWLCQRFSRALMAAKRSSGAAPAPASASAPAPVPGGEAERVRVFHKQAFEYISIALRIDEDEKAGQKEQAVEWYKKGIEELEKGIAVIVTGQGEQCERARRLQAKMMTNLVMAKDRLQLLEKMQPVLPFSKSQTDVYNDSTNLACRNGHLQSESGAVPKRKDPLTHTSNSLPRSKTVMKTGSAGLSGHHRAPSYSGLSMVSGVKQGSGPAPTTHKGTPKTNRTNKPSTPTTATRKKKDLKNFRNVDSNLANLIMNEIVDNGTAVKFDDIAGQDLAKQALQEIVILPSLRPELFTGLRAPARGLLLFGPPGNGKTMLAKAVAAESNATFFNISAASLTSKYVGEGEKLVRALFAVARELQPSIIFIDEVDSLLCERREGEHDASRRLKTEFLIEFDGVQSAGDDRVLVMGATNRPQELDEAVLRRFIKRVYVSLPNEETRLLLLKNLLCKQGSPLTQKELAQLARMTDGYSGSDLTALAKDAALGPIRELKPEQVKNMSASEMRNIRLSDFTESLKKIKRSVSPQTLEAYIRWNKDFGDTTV
UniProt Q9HD15: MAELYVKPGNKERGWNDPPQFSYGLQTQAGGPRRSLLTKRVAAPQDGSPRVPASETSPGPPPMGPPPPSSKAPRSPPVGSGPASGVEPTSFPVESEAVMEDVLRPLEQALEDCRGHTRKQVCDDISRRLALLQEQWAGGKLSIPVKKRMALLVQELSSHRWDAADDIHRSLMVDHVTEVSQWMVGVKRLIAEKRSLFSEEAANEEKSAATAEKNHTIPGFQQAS
UniProt Q13586, whole entry, looked up: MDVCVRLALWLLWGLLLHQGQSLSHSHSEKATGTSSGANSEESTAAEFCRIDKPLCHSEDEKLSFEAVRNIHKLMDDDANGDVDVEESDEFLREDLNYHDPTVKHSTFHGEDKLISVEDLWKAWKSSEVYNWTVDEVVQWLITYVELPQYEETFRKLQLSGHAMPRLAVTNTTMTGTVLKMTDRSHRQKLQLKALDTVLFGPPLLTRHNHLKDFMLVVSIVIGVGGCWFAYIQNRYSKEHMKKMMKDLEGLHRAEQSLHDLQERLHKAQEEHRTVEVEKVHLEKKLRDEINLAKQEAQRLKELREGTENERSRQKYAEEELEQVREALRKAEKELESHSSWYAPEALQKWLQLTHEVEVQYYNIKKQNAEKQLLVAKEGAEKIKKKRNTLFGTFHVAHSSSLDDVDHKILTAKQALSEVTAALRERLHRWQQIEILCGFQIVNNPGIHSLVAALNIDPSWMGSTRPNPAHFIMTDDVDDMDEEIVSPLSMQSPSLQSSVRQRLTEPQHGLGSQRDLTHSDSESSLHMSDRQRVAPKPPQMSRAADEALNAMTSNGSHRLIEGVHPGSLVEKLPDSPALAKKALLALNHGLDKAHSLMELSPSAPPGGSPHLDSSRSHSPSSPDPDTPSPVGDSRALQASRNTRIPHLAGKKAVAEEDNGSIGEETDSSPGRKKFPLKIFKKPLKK
UniProt P84103: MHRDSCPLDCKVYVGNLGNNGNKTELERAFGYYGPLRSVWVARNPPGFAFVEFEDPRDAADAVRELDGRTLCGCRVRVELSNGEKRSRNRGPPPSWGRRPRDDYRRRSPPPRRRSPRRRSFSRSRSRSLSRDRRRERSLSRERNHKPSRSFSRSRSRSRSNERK
UniProt Q5M775: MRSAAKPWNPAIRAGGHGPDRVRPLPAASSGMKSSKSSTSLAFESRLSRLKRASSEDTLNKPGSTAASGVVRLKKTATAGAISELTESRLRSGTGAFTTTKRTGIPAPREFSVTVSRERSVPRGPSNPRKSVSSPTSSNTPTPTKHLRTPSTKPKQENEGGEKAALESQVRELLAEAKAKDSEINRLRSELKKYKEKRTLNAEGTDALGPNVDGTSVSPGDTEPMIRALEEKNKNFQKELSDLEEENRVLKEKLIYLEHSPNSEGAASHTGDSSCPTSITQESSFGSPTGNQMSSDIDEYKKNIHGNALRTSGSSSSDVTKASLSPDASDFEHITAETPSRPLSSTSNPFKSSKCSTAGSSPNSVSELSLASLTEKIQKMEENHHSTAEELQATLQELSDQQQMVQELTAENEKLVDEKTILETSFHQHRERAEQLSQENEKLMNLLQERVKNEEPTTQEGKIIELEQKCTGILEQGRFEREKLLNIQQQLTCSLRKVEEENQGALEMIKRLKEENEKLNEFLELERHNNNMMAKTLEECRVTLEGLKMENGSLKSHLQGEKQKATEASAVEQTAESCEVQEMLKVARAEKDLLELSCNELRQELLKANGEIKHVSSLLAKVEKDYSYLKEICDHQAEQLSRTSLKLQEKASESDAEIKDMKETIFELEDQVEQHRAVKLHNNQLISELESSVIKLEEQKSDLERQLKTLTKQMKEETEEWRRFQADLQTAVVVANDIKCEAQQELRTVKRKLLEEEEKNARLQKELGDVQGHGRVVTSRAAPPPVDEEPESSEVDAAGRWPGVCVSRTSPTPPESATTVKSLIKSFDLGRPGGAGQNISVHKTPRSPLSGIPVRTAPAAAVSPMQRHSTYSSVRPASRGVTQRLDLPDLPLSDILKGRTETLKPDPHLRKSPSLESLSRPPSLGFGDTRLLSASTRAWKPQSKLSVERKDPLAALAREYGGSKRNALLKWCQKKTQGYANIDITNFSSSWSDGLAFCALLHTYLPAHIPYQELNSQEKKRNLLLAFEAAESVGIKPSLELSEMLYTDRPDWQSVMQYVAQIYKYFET
UniProt Q16842: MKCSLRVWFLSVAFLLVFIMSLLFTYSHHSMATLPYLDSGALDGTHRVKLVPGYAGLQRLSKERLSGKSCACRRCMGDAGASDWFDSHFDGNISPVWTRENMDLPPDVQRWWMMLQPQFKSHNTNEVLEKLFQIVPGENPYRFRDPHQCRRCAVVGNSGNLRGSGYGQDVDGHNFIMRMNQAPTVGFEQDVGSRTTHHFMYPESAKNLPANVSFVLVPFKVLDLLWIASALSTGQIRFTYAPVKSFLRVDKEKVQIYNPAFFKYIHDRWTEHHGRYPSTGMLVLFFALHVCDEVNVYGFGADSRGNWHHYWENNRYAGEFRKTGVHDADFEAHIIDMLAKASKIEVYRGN
UniProt Q658P3: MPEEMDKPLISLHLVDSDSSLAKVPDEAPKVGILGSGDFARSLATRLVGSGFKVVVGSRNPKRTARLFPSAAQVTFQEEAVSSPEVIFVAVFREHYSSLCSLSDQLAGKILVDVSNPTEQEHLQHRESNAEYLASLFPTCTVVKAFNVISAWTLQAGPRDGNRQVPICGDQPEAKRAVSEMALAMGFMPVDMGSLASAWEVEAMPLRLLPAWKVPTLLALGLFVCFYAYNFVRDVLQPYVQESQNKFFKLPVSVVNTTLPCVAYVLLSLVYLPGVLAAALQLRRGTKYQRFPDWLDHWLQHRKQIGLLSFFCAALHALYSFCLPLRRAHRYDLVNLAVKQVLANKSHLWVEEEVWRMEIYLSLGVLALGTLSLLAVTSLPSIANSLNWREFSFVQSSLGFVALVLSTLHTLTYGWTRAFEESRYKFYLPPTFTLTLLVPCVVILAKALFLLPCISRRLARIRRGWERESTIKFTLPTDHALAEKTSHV
UniProt Q8WW59: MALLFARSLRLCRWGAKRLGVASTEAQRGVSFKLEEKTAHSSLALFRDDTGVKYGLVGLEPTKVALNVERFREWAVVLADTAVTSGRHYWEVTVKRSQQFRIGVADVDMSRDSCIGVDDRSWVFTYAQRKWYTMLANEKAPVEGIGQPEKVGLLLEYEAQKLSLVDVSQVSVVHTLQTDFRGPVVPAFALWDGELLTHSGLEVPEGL
UniProt O15269: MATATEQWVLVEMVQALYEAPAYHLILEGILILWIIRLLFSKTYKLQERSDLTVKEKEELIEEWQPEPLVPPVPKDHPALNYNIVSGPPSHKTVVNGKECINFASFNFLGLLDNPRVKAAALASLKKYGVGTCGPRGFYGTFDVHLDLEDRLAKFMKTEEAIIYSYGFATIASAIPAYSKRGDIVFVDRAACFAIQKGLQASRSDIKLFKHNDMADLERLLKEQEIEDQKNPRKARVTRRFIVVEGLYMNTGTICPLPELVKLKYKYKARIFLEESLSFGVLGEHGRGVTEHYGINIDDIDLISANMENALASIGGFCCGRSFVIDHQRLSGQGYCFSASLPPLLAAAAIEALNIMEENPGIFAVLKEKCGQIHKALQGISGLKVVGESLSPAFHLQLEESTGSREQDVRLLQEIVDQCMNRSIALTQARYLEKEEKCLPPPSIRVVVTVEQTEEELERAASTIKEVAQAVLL
UniProt Q8NEF9: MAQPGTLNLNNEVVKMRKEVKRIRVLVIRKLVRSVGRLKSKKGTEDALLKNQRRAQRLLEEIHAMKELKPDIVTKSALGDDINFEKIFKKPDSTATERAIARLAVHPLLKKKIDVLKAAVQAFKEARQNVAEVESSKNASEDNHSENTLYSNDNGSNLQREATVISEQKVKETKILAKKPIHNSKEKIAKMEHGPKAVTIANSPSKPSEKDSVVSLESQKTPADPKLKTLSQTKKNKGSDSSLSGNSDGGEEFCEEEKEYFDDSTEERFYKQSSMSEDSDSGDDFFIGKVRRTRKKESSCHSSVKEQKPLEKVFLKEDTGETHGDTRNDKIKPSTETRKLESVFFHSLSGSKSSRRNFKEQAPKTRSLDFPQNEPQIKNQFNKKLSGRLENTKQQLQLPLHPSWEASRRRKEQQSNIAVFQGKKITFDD
UniProt O76094: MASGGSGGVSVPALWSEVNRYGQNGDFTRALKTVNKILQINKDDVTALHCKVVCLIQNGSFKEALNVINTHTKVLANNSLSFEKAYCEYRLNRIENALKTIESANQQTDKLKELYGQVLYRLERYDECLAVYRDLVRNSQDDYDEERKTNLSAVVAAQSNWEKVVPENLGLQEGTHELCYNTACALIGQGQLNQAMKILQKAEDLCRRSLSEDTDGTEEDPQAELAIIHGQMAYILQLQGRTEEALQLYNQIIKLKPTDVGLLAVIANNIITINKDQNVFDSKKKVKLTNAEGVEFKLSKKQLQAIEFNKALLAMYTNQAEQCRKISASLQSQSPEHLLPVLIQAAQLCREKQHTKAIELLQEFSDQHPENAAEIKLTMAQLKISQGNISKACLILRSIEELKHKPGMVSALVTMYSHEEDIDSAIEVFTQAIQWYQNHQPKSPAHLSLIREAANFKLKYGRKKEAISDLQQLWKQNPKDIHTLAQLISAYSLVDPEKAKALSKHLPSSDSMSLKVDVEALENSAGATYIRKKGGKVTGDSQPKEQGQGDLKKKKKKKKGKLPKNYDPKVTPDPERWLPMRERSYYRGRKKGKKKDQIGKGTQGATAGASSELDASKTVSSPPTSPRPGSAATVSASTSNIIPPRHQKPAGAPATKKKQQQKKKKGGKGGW
UniProt Q16629: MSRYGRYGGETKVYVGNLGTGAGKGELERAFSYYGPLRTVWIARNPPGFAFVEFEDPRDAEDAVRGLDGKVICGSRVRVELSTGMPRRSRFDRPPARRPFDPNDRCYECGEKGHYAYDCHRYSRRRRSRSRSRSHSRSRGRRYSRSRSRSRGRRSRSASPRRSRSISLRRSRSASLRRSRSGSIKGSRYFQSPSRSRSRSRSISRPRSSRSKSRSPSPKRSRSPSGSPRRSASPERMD
UniProt P51571: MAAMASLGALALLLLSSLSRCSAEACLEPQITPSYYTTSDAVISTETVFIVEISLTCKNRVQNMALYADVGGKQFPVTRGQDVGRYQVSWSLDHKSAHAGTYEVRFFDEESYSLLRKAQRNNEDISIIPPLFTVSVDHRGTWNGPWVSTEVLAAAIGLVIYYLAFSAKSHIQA
UniProt Q9BVQ7: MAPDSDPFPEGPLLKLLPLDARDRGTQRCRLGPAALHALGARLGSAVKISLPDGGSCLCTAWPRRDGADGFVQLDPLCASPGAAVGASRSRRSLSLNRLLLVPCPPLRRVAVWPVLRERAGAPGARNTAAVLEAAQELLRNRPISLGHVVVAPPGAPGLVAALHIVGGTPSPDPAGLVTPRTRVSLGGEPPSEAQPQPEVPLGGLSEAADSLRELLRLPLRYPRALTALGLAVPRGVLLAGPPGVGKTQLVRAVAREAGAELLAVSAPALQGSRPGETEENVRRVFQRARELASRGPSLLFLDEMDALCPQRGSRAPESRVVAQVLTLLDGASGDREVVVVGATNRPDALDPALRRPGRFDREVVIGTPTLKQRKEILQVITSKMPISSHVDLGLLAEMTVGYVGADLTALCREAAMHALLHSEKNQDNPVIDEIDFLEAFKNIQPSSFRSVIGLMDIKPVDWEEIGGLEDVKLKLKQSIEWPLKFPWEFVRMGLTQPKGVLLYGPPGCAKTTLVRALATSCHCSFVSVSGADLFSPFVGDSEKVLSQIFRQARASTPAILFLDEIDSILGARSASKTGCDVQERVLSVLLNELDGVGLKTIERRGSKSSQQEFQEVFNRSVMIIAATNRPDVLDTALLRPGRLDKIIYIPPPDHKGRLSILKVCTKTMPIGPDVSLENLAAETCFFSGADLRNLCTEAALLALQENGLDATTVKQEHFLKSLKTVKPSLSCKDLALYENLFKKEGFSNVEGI

| Target | log2 fold change |
| --- | --- |
| SPAST (UniProt Q9UBP0) | inactive: 0.002 |
| SPIRE2 (UniProt Q8WWL2) | inactive: 0.076 |
| SPHK1 isoform 2 (UniProt Q9NYA1) | inactive: 0.009 |
| SPPL2A (UniProt Q8TCT8) | inactive: 0.024 |
| SRA1 (UniProt Q9HD15) | inactive: 0.049 |
| STIM1 (UniProt Q13586) | inactive: 0.015 |
| SPTBN1 (UniProt Q01082) | inactive: 0.018 |
| SRSF3 (UniProt P84103) | inactive: -0.081 |
| SPECC1 (UniProt Q5M775) | inactive: -0.104 |
| STAG1 (UniProt Q8WVM7) | inactive: 0.06 |
| SPPL2B (UniProt Q8TCT7) | inactive: 0.049 |
| SRP54 (UniProt P61011) | inactive: 0.035 |
| ST3GAL2 (UniProt Q16842) | inactive: 0.096 |
| SRSF1 (UniProt Q07955) | inactive: -0.07 |
| STAT1 (UniProt P42224) | inactive: -0.003 |
| STAT5B (UniProt P51692) | inactive: 0.119 |
| ST6GALNAC1 (UniProt Q9NSC7) | inactive: -0.027 |
| STEAP3 isoform 2 (UniProt Q658P3) | inactive: 0.065 |
| SPRYD4 (UniProt Q8WW59) | inactive: 0.006 |
| SRGAP2 (UniProt O75044) | inactive: -0.03 |

| Target | log2 fold change |
| --- | --- |
| SRPK2 isoform 2 (UniProt P78362) | inactive: -0.042 |
| SPART (UniProt Q8N0X7) | inactive: 0.006 |
| STK24 (UniProt Q9Y6E0) | inactive: -0.002 |
| STAT3 (UniProt P40763) | inactive: 0.059 |
| SPECC1L (UniProt Q69YQ0) | inactive: -0.032 |
| SSU72 (UniProt Q9NP77) | inactive: -0.03 |
| SPTLC1 (UniProt O15269) | inactive: 0.011 |
| SRFBP1 (UniProt Q8NEF9) | inactive: -0.053 |
| STAU2 (UniProt Q9NUL3) | inactive: -0.073 |
| STAT5A (UniProt P42229) | inactive: 0.02 |
| SRSF4 (UniProt Q08170) | inactive: -0.055 |
| SRP72 (UniProt O76094) | inactive: 0.021 |
| SRSF7 (UniProt Q16629) | inactive: -0.096 |
| SSR4 (UniProt P51571) | inactive: -0.004 |
| SPTBN4 (UniProt Q9H254) | inactive: 0.026 |
| SPATA5L1 (UniProt Q9BVQ7) | inactive: 0.022 |
| SPG11 (UniProt Q96JI7) | inactive: 0 |
| STAT6 (UniProt P42226) | inactive: -0.083 |
| STARD9 (UniProt Q9P2P6) | inactive: 0.144 |
| SREK1 isoform 2 (UniProt Q8WXA9) | inactive: 0.317 |

The targets below were run with C[C@@H](Oc1cc(-c2cnn(C3CCNCC3)c2)cnc1N)c1c(Cl)ccc(F)c1Cl [crizotinib] in the same assay as above.
How it was run: as §1

| Target | log2 fold change |
| --- | --- |
| SPAST (UniProt Q9UBP0) | inactive: -0.074 |
| SPIRE2 (UniProt Q8WWL2) | inactive: 0.286 |
| SPHK1 isoform 2 (UniProt Q9NYA1) | inactive: 0.062 |
| SPPL2A (UniProt Q8TCT8) | inactive: 0.086 |
| SRA1 (UniProt Q9HD15) | inactive: 0.042 |
| STIM1 (UniProt Q13586) | inactive: -0.07 |
| SPTBN1 (UniProt Q01082) | inactive: 0.042 |
| SRSF3 (UniProt P84103) | inactive: 0.061 |
| SPECC1 (UniProt Q5M775) | inactive: -0.085 |
| STAG1 (UniProt Q8WVM7) | inactive: 0.001 |
| SPPL2B (UniProt Q8TCT7) | inactive: -0.011 |
| SRP54 (UniProt P61011) | inactive: -0.038 |
| ST3GAL2 (UniProt Q16842) | inactive: -0.288 |
| SRSF1 (UniProt Q07955) | inactive: -0.05 |
| STAT1 (UniProt P42224) | inactive: -0.034 |
| STAT5B (UniProt P51692) | inactive: -0.353 |
| ST6GALNAC1 (UniProt Q9NSC7) | inactive: -0.012 |
| STEAP3 isoform 2 (UniProt Q658P3) | inactive: -0.003 |
| SPRYD4 (UniProt Q8WW59) | inactive: 0.041 |
| SRGAP2 (UniProt O75044) | inactive: 0.024 |

| Target | log2 fold change |
| --- | --- |
| SRPK2 isoform 2 (UniProt P78362) | inactive: 0.044 |
| SPART (UniProt Q8N0X7) | inactive: -0.107 |
| STK24 (UniProt Q9Y6E0) | inactive: -0.097 |
| STAT3 (UniProt P40763) | inactive: -0.126 |
| SPECC1L (UniProt Q69YQ0) | inactive: 0.07 |
| SSU72 (UniProt Q9NP77) | inactive: -0.239 |
| SPTLC1 (UniProt O15269) | inactive: 0.011 |
| SRFBP1 (UniProt Q8NEF9) | inactive: -0.029 |
| STAU2 (UniProt Q9NUL3) | inactive: -0.238 |
| STAT5A (UniProt P42229) | inactive: -0.002 |
| SRSF4 (UniProt Q08170) | inactive: 0.011 |
| SRP72 (UniProt O76094) | inactive: -0.121 |
| SRSF7 (UniProt Q16629) | inactive: 0.008 |
| SSR4 (UniProt P51571) | inactive: 0.001 |
| SPTBN4 (UniProt Q9H254) | inactive: 0.09 |
| SPATA5L1 (UniProt Q9BVQ7) | inactive: 0.021 |
| SPG11 (UniProt Q96JI7) | inactive: 0.058 |
| STAT6 (UniProt P42226) | inactive: -0.037 |
| STARD9 (UniProt Q9P2P6) | inactive: 0.141 |
| SREK1 isoform 2 (UniProt Q8WXA9) | inactive: -0.05 |
